Assay results: patent publication US20010046498A1, “Chimeric prostate-homing peptides with pro-apoptotic activity” (priority 2000, published 2001)
Like-named read-outs stand apart in the source and are kept apart here. For some assays here: Not every detail of the peptide structures is certain; ends, links or a residue may be inferred. For some assays here: At least one structure is not confirmed: it was looked up by name or label, or the drawing left a doubt. Square brackets hold non-standard residues; d marks the D form. Peptide text beside a SMILES is read from it.

How the values were obtained:
[1] = system: normal human dermal microvessel endothelial cells (DMECs); format: cell-based; conditions: scored at 72 hours
Procedure: The effect of HPP-1 was assayed on normal human dermal microvessel endothelial cells (DMECs) under the angiogenic conditions of proliferation and cord formation. In addition, the effect of HPP-1 was assayed under the angiostatic condition of a monolayer maintained at 100% confluency (as described below).
(§1) Briefly, dermal microvessel endothelial cells (DMECs) were grown in CADMEC Growth Media™ (Cell Applications, Inc.; San Diego, Calif.). Dermal microvessel endothelial cells were then cultured under three experimental conditions: proliferation, 30% confluency in a growth media supplemented with 500 ng/ml human recombinant vascular endothelial growth factor (VEGF; Pharmingen); no proliferation, 100% confluency in media formulated to maintain a monolayer; and cord formation, 60% confluency (required for induction) in media formulated to induce cord formation. The KS1767 and MDA-MB-435 cells were cultured as described in Arap et al., supra, 1998; Hernier et al., supra, 1994).
(§2) Percent viability and LC50 (Table 1) were determined by apoptotic morphology as described in Ellerby et al., J. Neurosci. 17:6165-6178 (1997). […] At least 500 cells were scored for a given time point in each experiment. Percent viability was calculated relative to untreated controls. The LC50 for monolayer, proliferation (60% confluency), and cord formation were scored at 72 hours.

[2] = system: MDA-MB-435 human breast carcinoma cells; experiment: LC50 for MDA-MB-435 cells scored by apoptotic morphology; format: cell-based; conditions: proliferating MDA-MB-435 cells; read-out: LC50 MDA-MB-435 Prolif.
Procedure: as §1
as §2, with “(1997). For the percent viability assays, dermal microvessel endothelial cells were treated with 60 μM HPP-1 or control peptide D(KLAKLAK)2. At the indicated time points, cell culture medium was aspirated from adherent cells, and the cells were gently washed once with PBS at 37° C.” for “(1997).”

KS1767 cells = experiment: LC50 for KS1767 cells scored by apoptotic morphology; format: cell-based; conditions: proliferating KS1767 cells; read-out: LC50 KS1767 Prolif.
Procedure: as §1
as §2, with “(1997). For the percent viability assays, dermal microvessel endothelial cells were treated with 60 μM HPP-1 or control peptide D(KLAKLAK)2. At the indicated time points, cell culture medium was aspirated from adherent cells, and the cells were gently washed once with PBS at 37° C.” for “(1997).”

[3] = system: prostate cancer in TRAMP mice; experiment: Treatment of TRAMP mice (transgenic prostate cancer); format: in vivo; conditions: 250 μg/dose every other week, 10 doses, from 12 weeks of age
Procedure: TRAMP mice develop prostate cancer under the influence of a transgene as described in Gingrich et al., supra, 1996. SMSIARL-GG-D(KLAKLAK)2 chimeric peptide was assayed for the ability to suppress cancer development in the TRAMP mice. Treatment was initiated at 12 weeks of age with mice (10 per group) receiving SMSIARL-GG-D(KLAKLAK)2 peptide or control peptide at 250 μg/dose every other week for a total of 10 doses. Four mice, which had no visible tumor, were eliminated from the SMSIARL-GG-D(KLAKLAK)2 group after dying within minutes after the injection.

CC(C)C[C@@H](NC(=O)[C@H](N)CCCCN)C(=O)N[C@H](C)C(=O)N[C@H](CCCCN)C(=O)N[C@H](CC(C)C)C(=O)N[C@H](C)C(=O)N[C@H](CCCCN)C(=O)N[C@H](CCCCN)C(=O)N[C@H](CC(C)C)C(=O)N[C@H](C)C(=O)N[C@H](CCCCN)C(=O)N[C@H](CC(C)C)C(=O)N[C@H](C)C(=O)N[C@H](CCCCN)C(=O)O [D(KLAKLAK)2]
CC50 ([1]; cord formation, read-out: LC50 DMEC Angiogenic Cord Form): 368 µM | CC50 ([1]; proliferation with VEGF, read-out: LC50 DMEC Angiogenic Prolif.): 346 µM | CC50 [2]: 333 µM | CC50 (KS1767 cells): 387 µM

CC[C@H](C)[C@H](NC(=O)[C@H](CO)NC(=O)[C@H](CCSC)NC(=O)[C@@H](N)CO)C(=O)N[C@@H](C)C(=O)N[C@@H](CCCNC(=N)N)C(=O)N[C@@H](CC(C)C)C(=O)NCC(=O)NCC(=O)N[C@H](CCCCN)C(=O)N[C@H](CC(C)C)C(=O)N[C@H](C)C(=O)N[C@H](CCCCN)C(=O)N[C@H](CC(C)C)C(=O)N[C@H](C)C(=O)N[C@H](CCCCN)C(=O)N[C@H](CCCCN)C(=O)N[C@H](CC(C)C)C(=O)N[C@H](C)C(=O)N[C@H](CCCCN)C(=O)N[C@H](CC(C)C)C(=O)N[C@H](C)C(=O)N[C@H](CCCCN)C(=O)O [SMSIARL-GG-D(KLAKLAK)2] (H-SMSIARLGG[dK][dL][dA][dK][dL][dA][dK][dK][dL][dA][dK][dL][dA][dK]-OH)
survival of TRAMP mice versus controls [3]: survived longer
